Measurements taken from paper PMC12266122.
Results are given in words; binding and its absence hold for the method and conditions named. Binding seen in cells or lysates may run through a third protein. These calls come from enrichment with a bait or labelling near it, and not all partners need be listed.

Protein sequences, listed by entry. Tags and fused reporters are not part of them.
UniProt Q9H4A3: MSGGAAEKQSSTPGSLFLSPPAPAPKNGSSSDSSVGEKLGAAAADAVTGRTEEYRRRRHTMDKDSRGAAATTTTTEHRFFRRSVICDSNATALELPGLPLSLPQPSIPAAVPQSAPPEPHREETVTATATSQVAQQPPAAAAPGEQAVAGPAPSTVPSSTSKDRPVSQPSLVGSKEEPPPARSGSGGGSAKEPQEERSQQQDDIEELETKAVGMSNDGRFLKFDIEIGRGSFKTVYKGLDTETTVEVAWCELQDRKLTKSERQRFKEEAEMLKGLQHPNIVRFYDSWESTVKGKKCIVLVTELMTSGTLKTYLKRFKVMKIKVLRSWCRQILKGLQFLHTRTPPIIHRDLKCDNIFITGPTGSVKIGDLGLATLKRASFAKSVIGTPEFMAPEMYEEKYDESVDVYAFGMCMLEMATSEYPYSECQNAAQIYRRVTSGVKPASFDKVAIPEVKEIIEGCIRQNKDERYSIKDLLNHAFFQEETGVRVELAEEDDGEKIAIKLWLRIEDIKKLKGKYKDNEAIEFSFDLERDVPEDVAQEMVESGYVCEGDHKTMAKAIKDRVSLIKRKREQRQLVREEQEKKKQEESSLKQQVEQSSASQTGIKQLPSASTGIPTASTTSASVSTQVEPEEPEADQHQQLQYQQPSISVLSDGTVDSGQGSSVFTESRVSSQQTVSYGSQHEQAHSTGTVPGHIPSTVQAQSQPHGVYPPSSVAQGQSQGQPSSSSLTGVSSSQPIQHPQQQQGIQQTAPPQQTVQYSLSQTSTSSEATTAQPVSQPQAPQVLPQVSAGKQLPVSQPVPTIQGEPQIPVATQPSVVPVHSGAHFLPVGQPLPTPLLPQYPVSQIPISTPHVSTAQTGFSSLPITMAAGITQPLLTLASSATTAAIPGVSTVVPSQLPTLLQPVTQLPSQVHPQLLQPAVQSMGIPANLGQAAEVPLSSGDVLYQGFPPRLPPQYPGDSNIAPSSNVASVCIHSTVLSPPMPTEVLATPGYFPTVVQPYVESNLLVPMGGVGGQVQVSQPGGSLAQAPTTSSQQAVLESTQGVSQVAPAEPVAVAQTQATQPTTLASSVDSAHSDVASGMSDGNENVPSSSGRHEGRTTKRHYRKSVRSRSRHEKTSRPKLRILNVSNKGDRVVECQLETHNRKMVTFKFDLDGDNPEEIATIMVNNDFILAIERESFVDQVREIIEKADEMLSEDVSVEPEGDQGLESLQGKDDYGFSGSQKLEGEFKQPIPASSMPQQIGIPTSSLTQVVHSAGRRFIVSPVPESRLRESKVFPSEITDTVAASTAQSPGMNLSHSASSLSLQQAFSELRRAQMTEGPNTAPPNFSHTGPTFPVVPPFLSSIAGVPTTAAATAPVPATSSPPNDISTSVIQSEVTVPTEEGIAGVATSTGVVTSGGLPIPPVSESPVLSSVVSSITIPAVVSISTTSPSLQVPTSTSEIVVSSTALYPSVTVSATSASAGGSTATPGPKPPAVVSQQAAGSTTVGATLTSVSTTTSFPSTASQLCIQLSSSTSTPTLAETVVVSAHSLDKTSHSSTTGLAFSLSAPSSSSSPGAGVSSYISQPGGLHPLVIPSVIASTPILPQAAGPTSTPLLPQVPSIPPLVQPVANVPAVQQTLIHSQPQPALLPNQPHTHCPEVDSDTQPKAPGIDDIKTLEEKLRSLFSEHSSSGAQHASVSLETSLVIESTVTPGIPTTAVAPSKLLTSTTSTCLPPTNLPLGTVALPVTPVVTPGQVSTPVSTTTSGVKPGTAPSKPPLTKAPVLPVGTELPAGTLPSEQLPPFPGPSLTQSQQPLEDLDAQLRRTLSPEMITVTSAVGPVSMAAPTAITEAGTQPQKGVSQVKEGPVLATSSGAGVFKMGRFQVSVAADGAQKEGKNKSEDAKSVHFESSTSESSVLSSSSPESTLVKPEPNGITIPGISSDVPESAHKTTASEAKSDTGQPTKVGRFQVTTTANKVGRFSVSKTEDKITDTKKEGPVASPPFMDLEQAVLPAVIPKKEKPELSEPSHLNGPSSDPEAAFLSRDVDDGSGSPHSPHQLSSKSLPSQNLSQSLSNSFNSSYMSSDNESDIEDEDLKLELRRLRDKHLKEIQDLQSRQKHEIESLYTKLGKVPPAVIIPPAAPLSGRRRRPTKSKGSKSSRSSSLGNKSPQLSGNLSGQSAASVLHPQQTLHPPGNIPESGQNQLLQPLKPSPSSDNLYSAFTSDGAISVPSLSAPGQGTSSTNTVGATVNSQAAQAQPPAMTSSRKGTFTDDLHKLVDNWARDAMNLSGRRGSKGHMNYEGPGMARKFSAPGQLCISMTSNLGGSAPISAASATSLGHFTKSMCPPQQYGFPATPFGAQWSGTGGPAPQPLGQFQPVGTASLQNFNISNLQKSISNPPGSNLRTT
UniProt Q9UHY1: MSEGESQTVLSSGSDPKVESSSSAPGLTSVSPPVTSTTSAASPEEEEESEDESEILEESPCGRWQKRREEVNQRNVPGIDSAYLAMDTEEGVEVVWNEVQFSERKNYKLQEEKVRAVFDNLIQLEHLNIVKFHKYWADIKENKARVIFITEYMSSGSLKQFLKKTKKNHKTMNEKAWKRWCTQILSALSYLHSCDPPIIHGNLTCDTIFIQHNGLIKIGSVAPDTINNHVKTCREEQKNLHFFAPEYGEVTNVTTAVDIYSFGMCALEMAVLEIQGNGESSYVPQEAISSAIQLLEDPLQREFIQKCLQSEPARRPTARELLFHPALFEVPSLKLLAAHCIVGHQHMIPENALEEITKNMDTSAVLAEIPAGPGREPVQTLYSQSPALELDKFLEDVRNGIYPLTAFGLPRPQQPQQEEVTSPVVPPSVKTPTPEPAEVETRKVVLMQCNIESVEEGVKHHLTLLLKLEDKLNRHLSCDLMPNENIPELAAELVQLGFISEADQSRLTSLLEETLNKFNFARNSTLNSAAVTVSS

B1: NRBP2, endogenous (protein, UniProt Q9NSY0 1-501)
chain: MAAPEPAPRRAREREREREDESEDESDILEESPCGRWQKRREQVNQGNMPGLQSTFLAMDTEEGVEVVWNELHFGDRKAFAAHEEKIQTVFEQLVLVDHPNIVKLHKYWLDTSEACARVIFITEYVSSGSLKQFLKKTKKNHKAMNARAWKRWCTQILSALSFLHACSPPIIHGNLTSDTIFIQHNGLIKIGSVWHRIFSNALPDDLRSPIRAEREELRNLHFFPPEYGEVADGTAVDIFSFGMCALEMAVLEIQTNGDTRVTEEAIARARHSLSDPNMREFILCCLARDPARRPSAHSLLFHRVLFEVHSLKLLAAHCFIQHQYLMPENVVEEKTKAMDLHAVLAELPRPRRPPLQWRYSEVSFMELDKFLEDVRNGIYPLMNFAATRPLGLPRVLAPPPEEVQKAKTPTPEPFDSETRKVIQMQCNLERSEDKARWHLTLLLVLEDRLHRQLTYDLLPTDSAQDLASELVHYGFLHEDDRMKLAAFLESTFLKYRGTQA
B2: TSC22D1, endogenous (protein, UniProt Q15714 1-1073)
chain: MHQPPESTAAAAAAADISARKMAHPAMFPRRGSGSGSASALNAAGTGVGSNATSSEDFPPPSLLQPPPPAASSTSGPQPPPPQSLNLLSQAQLQAQPLAPGGTQMKKKSGFQITSVTPAQISASISSNNSIAEDTESYDDLDESHTEDLSSSEILDVSLSRATDLGEPERSSSEETLNNFQEAETPGAVSPNQPHLPQPHLPHLPQQNVVINGNAHPHHLHHHHQIHHGHHLQHGHHHPSHVAVASASITGGPPSSPVSRKLSTTGSSDSITPVAPTSAVSSSGSPASVMTNMRAPSTTGGIGINSVTGTSTVNNVNITAVGSFNPNVTSSMLGNVNISTSNIPSAAGVSVGPGVTSGVNVNILSGMGNGTISSSAAVSSVPNAAAGMTGGSVSSQQQQPTVNTSRFRVVKLDSSSEPFKKGRWTCTEFYEKENAVPATEGVLINKVVETVKQNPIEVTSERESTSGSSVSSSVSTLSHYTESVGSGEMGAPTVVVQQQQQQQQQQQQQPALQGVTLQQMDFGSTGPQSIPAVSIPQSISQSQISQVQLQSQELSYQQKQGLQPVPLQATMSAATGIQPSPVNVVGVTSALGQQPSISSLAQPQLPYSQAAPPVQTPLPGAPPPQQLQYGQQQPMVSTQMAPGHVKSVTQNPASEYVQQQPILQTAMSSGQPSSAGVGAGTTVIPVAQPQGIQLPVQPTAVPAQPAGASVQPVGQAPAAVSAVPTGSQIANIGQQANIPTAVQQPSTQVPPSVIQQGAPPSSQVVPPAQTGIIHQGVQTSAPSLPQQLVIASQSSLLTVPPQPQGVEPVAQGIVSQQLPAVSSLPSASSISVTSQVSSTGPSGMPSAPTNLVPPQNIAQTPATQNGNLVQSVSQPPLIATNTNLPLAQQIPLSSTQFSAQSLAQAIGSQIEDARRAAEPSLVGLPQTISGDSGGMSAVSDGSSSSLAASASLFPLKVLPLTTPLVDGEDESSSGASVVAIDNKIEQAMDLVKSHLMYAVREEVEVLKEQIKELIEKNSQLEQENNLLKTLASPEQLAQFQAQLQTGSPPATTQPQGTTQPPAQPASQGSGPTA
B3: TSC22D3, endogenous (protein, UniProt Q99576 1-134)
chain: MNTEMYQTPMEVAVYQLHNFSISFFSSLLGGDVVSVKLDNSASGASVVAIDNKIEQAMDLVKNHLMYAVREEVEILKEQIRELVEKNSQLERENTLLKTLASPEQLEKFQSCLSPEEPAPESPQVPEAPGGSAV
B4: NME3, endogenous (protein, UniProt Q13232 1-169)
chain: MICLVLTIFANLFPAACTGAHERTFLAVKPDGVQRRLVGEIVRRFERKGFKLVALKLVQASEELLREHYAELRERPFYGRLVKYMASGPVVAMVWQGLDVVRTSRALIGATNPADAPPGTIRGDFCIEVGKNLIHGSDSVESARREIALWFRADELLCWEDSAGHWLYE
B5: SPACDR, endogenous (protein, UniProt Q8IZ16 1-206)
chain: MVVVMKFFRWVRRAWQRIISWVFFWRQKIKPTISGHPDSKKHSLKKMEKTLQVVETLRLVELPKEAKPKLGESPELADPCVLAKTTEETEVELGQQGQSLLQLPRTAVKSVSTLMVSALQSGWQMCSWKSSVSSASVSSQVRTQSPLKTPEAELLWEVYLVLWAVRKHLRRLYRRQERHRRHHVRCHAAPRPNPAQSLKLDAQSPL
B6: TBC1D30, endogenous (protein, UniProt Q9Y2I9 1-924)
chain: MDVLPTGGGRPGLRTELEFRGGGGEARLESQEEETIPAAPPAPRLRGAAERPRRSRDTWDGDEDTEPGEACGGRTSRTASLVSGLLNELYSCTEEEEAAGGGRGAEGRRRRRDSLDSSTEASGSDVVLGGRSGAGDSRVLQELQERPSQRHQMLYLRQKDANELKTILRELKYRIGIQSAKLLRHLKQKDRLLHKVQRNCDIVTACLQAVSQKRRVDTKLKFTLEPSLGQNGFQQWYDALKAVARLSTGIPKEWRRKVWLTLADHYLHSIAIDWDKTMRFTFNERSNPDDDSMGIQIVKDLHRTGCSSYCGQEAEQDRVVLKRVLLAYARWNKTVGYCQGFNILAALILEVMEGNEGDALKIMIYLIDKVLPESYFVNNLRALSVDMAVFRDLLRMKLPELSQHLDTLQRTANKESGGGYEPPLTNVFTMQWFLTLFATCLPNQTVLKIWDSVFFEGSEIILRVSLAIWAKLGEQIECCETADEFYSTMGRLTQEMLENDLLQSHELMQTVYSMAPFPFPQLAELREKYTYNITPFPATVKPTSVSGRHSKARDSDEENDPDDEDAVVNAVGCLGPFSGFLAPELQKYQKQIKEPNEEQSLRSNNIAELSPGAINSCRSEYHAAFNSMMMERMTTDINALKRQYSRIKKKQQQQVHQVYIRADKGPVTSILPSQVNSSPVINHLLLGKKMKMTNRAAKNAVIHIPGHTGGKISPVPYEDLKTKLNSPWRTHIRVHKKNMPRTKSHPGCGDTVGLIDEQNEASKTNGLGAAEAFPSGCTATAGREGSSPEGSTRRTIEGQSPEPVFGDADVDVSAVQAKLGALELNQRDAAAETELRVHPPCQRHCPEPPSAPEENKATSKAPQGSNSKTPIFSPFPSVKPLRKSATARNLGLYGPTERTPTVHFPQMSRSFSKPGGGNSGTKKR
B7: OAS3, endogenous (protein, UniProt Q9Y6K5 1-1087)
chain: MDLYSTPAAALDRFVARRLQPRKEFVEKARRALGALAAALRERGGRLGAAAPRVLKTVKGGSSGRGTALKGGCDSELVIFLDCFKSYVDQRARRAEILSEMRASLESWWQNPVPGLRLTFPEQSVPGALQFRLTSVDLEDWMDVSLVPAFNVLGQAGSGVKPKPQVYSTLLNSGCQGGEHAACFTELRRNFVNIRPAKLKNLILLVKHWYHQVCLQGLWKETLPPVYALELLTIFAWEQGCKKDAFSLAEGLRTVLGLIQQHQHLCVFWTVNYGFEDPAVGQFLQRQLKRPRPVILDPADPTWDLGNGAAWHWDLLAQEAASCYDHPCFLRGMGDPVQSWKGPGLPRAGCSGLGHPIQLDPNQKTPENSKSLNAVYPRAGSKPPSCPAPGPTGAASIVPSVPGMALDLSQIPTKELDRFIQDHLKPSPQFQEQVKKAIDIILRCLHENCVHKASRVSKGGSFGRGTDLRDGCDVELIIFLNCFTDYKDQGPRRAEILDEMRAQLESWWQDQVPSLSLQFPEQNVPEALQFQLVSTALKSWTDVSLLPAFDAVGQLSSGTKPNPQVYSRLLTSGCQEGEHKACFAELRRNFMNIRPVKLKNLILLVKHWYRQVAAQNKGKGPAPASLPPAYALELLTIFAWEQGCRQDCFNMAQGFRTVLGLVQQHQQLCVYWTVNYSTEDPAMRMHLLGQLRKPRPLVLDPADPTWNVGHGSWELLAQEAAALGMQACFLSRDGTSVQPWDVMPALLYQTPAGDLDKFISEFLQPNRQFLAQVNKAVDTICSFLKENCFRNSPIKVIKVVKGGSSAKGTALRGRSDADLVVFLSCFSQFTEQGNKRAEIISEIRAQLEACQQERQFEVKFEVSKWENPRVLSFSLTSQTMLDQSVDFDVLPAFDALGQLVSGSRPSSQVYVDLIHSYSNAGEYSTCFTELQRDFIISRPTKLKSLIRLVKHWYQQCTKISKGRGSLPPQHGLELLTVYAWEQGGKDSQFNMAEGFRTVLELVTQYRQLCIYWTINYNAKDKTVGDFLKQQLQKPRPIILDPADPTGNLGHNARWDLLAKEAAACTSALCCMGRNGIPIQPWPVKAAV
B8: FAM111B, endogenous (protein, UniProt Q6SJ93 1-734)
chain: MNSMKTEENKSFSAMEDDQRTRPEVSKDTVMKQTHADTPVDHCLSGIRKCSSTFKLKSEVNKHETALEMQNPNLNNKECCFTFTLNGNSRKLDRSVFTAYGKPSESIYSALSANDYFSERIKNQFNKNIIVYEEKTIDGHINLGMPLKCLPSDSHFKITFGQRKSSKEDGHILRQCENPNMECILFHVVAIGRTRKKIVKINELHEKGSKLCIYALKGETIEGALCKDGRFRSDIGEFEWKLKEGHKKIYGKQSMVDEVSGKVLEMDISKKKALQQKDIHKKIKQNESATDEINHQSLIQSKKKVHKPKKDGETKDVEHSREQILPPQDLSHYIKDKTRQTIPRIRNYYFCSLPRKYRQINSQVRRRPHLGRRYAINLDVQKEAINLLKNYQTLNEAIMHQYPNFKEEAQWVRKYFREEQKRMNLSPAKQFNIYKKDFGKMTANSVSVATCEQLTYYSKSVGFMQWDNNGNTGNATCFVFNGGYIFTCRHVVHLMVGKNTHPSLWPDIISKCAKVTFTYTEFCPTPDNWFSIEPWLKVSNENLDYAILKLKENGNAFPPGLWRQISPQPSTGLIYLIGHPEGQIKKIDGCTVIPLNERLKKYPNDCQDGLVDLYDTTSNVYCMFTQRSFLSEVWNTHTLSYDTCFSDGSSGSPVFNASGKLVALHTFGLFYQRGFNVHALIEFGYSMDSILCDIKKTNESLYKSLNDEKLETYDEEKGKQESSLQDHQIEPMEC
B9: UBL4A, endogenous (protein, UniProt P11441 1-157)
chain: MQLTVKALQGRECSLQVPEDELVSTLKQLVSEKLNVPVRQQRLLFKGKALADGKRLSDYSIGPNSKLNLVVKPLEKVLLEEGEAQRLADSPPPQVWQLISKVLARHFSAADASRVLEQLQRDYERSLSRLTLDDIERLASRFLHPEVTETMEKGFSK
B10: PSME3IP1, endogenous (protein, UniProt Q9GZU8 1-254)
chain: MDGGDDGNLIIKKRFVSEAELDERRKRRQEEWEKVRKPEDPEECPEEVYDPRSLYERLQEQKDRKQQEYEEQFKFKNMVRGLDEDETNFLDEVSRQQELIEKQRREEELKELKEYRNNLKKVGISQENKKEVEKKLTVKPIETKNKFSQAKLLAGAVKHKSSESGNSVKRLKPDPEPDDKNQEPSSCKSLGNTSLSGPSIHCPSAAVCIGILPGLGAYSGSSDSESSSDSEGTINATGKIVSSIFRTNTFLEAP

The binders below were run against GFP-WNK1 (N-terminal GFP knock-in at the endogenous WNK1 locus) (human (endogenous in HEK293)) (UniProt Q9H4A3) (assay: proximity labelling; GFP-WNK1 KI and WT HEK293 cells expressing Flag-TurboID-aGFP6M; 0.5 mM biotin with or without 0.5 M sorbitol for 5 min; streptavidin enrichment from lysate; DIA mass spectrometry).

binding, binds:
B1
B2
B3

The binders below were run against GFP-NRBP1 (N-terminal GFP knock-in at the endogenous NRBP1 locus) (human (endogenous in HEK293)) (UniProt Q9UHY1) (assay: affinity purification with mass spectrometry; GFP-NRBP1 KI and WT HEK293 cells with or without 0.5 M sorbitol for 30 min; lysis in 20 mM Hepes pH 7.5, 150 mM NaCl, 0.5% NP-40; GFP-Trap magnetic beads, 4°C, 2 hours; DIA mass spectrometry).

binding, binds:
B1
B2
B3
B4
B5
B6
B7
B8
B9
B10
